Assay results reported in article PMC3531502 (PLoS Biology, 2012).
Results are given in words; binding and its absence hold for the method and conditions named.

Target: T1, HET-S(1-227), HeLo domain of HET-S (Podospora anserina), B2ACC7
T1 chain: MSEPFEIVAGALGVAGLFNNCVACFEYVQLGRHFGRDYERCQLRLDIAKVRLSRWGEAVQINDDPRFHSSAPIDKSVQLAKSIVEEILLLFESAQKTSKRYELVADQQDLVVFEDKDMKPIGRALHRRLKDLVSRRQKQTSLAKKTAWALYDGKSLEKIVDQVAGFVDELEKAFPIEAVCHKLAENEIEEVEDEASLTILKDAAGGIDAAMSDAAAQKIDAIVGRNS
Test: SEC-MALS; […], PBS, 10% glycerol, room temperature, […]; both purified
Conditions: remark: other sources report otherwise

B1: HET-S(1-227), HeLo domain of HET-S, B2ACC7 1-227 (domain or fragment)
chain: MSEPFEIVAGALGVAGLFNNCVACFEYVQLGRHFGRDYERCQLRLDIAKVRLSRWGEAVQINDDPRFHSSAPIDKSVQLAKSIVEEILLLFESAQKTSKRYELVADQQDLVVFEDKDMKPIGRALHRRLKDLVSRRQKQTSLAKKTAWALYDGKSLEKIVDQVAGFVDELEKAFPIEAVCHKLAENEIEEVEDEASLTILKDAAGGIDAAMSDAAAQKIDAIVGRNS
- binding: no binding (tested: 20 µM)
